Measured values as given in the M2OR odorant receptor database.
The list shows a part of the results, in another mix than the full data. The calls were merged from several studies; some rest on single wells. The list shows a part of the results.

Legend:
Details in all cases: stereoisomer not certain
OR51I1 (Homo sapiens) = molecular target: T1, OR51I1 (Homo sapiens) (UniProt Q9H343)
T1 sequence (whole entry): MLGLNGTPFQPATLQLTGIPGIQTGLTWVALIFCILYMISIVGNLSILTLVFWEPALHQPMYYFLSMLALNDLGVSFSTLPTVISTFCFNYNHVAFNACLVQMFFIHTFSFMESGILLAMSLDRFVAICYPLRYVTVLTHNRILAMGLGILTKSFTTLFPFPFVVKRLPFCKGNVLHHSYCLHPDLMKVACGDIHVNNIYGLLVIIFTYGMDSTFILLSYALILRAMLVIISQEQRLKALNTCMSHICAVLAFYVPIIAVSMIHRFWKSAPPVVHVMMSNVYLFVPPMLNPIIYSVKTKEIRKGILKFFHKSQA
Procedure, shortened: (§1)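 Transient luciferase assays in mammalian cell lines were common, though methods varied by source. The values come from published papers and their supplementary material, with extra details from the original authors when needed. Responsive refers to a measured signal the original authors judged statistically different from baseline, and non-responsive (inactive) to the remainder.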

OR51I2 (Homo sapiens) = molecular target: T2, OR51I2 (Homo sapiens) (UniProt Q9H344)
T2 sequence (whole entry): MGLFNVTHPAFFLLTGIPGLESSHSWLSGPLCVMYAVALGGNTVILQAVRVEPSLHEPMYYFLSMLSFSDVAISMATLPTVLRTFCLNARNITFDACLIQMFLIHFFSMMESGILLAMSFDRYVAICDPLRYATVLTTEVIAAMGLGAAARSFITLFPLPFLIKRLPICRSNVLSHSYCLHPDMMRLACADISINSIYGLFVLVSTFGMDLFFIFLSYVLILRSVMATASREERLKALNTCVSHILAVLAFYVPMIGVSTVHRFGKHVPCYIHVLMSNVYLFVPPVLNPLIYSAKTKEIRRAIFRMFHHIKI
Procedure, shortened: as §1

OR51L1 (Homo sapiens) = molecular target: T3, OR51L1 (Homo sapiens) (UniProt Q8NGJ5)
T3 sequence (whole entry): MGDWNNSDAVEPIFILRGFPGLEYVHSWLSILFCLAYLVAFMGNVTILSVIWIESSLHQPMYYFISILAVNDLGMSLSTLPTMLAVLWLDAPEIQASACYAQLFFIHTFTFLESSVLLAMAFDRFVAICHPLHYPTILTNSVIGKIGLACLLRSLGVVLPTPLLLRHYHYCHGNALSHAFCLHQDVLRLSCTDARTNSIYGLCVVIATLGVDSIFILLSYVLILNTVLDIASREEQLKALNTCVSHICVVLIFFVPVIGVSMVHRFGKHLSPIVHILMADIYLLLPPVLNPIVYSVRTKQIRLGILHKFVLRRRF
Procedure, shortened: as §1

OR51S1 (Homo sapiens) = molecular target: T4, OR51S1 (Homo sapiens) (UniProt Q8NGJ8)
T4 sequence (whole entry): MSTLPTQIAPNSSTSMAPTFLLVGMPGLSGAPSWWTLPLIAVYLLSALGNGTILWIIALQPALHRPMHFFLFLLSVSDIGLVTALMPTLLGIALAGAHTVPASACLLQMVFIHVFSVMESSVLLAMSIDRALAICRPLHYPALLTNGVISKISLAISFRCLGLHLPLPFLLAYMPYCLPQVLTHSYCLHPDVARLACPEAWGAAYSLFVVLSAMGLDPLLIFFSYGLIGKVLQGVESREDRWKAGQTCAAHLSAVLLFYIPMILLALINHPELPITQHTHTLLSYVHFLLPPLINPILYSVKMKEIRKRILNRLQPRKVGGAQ
Procedure, shortened: as §1

OR52A4P (Homo sapiens) = molecular target: T5, OR52A4P (Homo sapiens) (UniProt A6NMU1)
T5 sequence (whole entry): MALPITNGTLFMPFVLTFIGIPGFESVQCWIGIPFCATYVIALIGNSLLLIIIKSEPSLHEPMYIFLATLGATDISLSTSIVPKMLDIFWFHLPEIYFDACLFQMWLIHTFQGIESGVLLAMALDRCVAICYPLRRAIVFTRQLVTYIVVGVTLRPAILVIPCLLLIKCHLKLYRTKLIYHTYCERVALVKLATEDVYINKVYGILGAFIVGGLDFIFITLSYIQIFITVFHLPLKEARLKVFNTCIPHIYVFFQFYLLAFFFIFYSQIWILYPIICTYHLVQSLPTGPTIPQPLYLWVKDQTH
Procedure, shortened: as §1

OR52A5 (Homo sapiens) = molecular target: T6, OR52A5 (Homo sapiens) (UniProt Q9H2C5)
T6 sequence (whole entry): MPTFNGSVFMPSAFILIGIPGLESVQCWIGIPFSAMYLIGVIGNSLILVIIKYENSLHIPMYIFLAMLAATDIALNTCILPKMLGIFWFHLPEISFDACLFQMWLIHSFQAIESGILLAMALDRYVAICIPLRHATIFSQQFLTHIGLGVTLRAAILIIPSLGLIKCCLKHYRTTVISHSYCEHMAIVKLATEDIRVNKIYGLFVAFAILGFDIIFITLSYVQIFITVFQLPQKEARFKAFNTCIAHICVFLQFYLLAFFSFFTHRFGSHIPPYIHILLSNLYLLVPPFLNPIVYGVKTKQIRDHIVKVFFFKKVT
Procedure, shortened: as §1

OR52B4 (Homo sapiens) = molecular target: T7, OR52B4 (Homo sapiens) (UniProt Q8NGK2)
T7 sequence (whole entry): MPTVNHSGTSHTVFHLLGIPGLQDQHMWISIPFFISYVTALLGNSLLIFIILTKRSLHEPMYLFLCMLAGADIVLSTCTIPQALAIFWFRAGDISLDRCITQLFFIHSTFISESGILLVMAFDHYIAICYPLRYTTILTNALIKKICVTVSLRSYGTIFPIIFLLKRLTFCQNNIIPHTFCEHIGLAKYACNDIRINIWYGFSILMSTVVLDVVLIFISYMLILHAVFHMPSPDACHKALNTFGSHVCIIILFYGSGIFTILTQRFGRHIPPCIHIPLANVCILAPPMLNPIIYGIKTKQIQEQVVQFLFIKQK
Procedure, shortened: as §1

OR52D1 (Homo sapiens) = molecular target: T8, OR52D1 (Homo sapiens) (UniProt Q9H346)
T8 sequence (whole entry): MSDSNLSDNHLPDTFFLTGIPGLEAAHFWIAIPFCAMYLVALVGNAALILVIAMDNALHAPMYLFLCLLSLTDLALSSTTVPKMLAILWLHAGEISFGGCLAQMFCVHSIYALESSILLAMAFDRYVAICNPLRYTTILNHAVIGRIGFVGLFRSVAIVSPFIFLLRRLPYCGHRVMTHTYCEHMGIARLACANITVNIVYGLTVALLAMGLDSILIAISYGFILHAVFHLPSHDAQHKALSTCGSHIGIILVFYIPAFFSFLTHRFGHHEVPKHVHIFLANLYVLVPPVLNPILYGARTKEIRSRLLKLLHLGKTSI
Procedure, shortened: as §1

OR52A1 (Homo sapiens) = molecular target: T9, OR52A1 (Homo sapiens) (UniProt Q9UKL2)
T9 sequence (whole entry): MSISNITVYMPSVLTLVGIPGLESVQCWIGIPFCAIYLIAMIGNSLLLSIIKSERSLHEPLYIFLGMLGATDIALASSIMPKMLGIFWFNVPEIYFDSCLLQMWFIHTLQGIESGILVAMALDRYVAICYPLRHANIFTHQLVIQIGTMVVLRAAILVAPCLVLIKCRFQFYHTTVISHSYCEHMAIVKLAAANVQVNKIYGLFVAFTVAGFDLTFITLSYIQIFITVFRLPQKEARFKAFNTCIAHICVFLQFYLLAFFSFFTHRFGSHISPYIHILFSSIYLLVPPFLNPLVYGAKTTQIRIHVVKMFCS
Procedure, shortened: as §1

OR52B2 (Homo sapiens) = molecular target: T10, OR52B2 (Homo sapiens) (UniProt Q96RD2)
T10 sequence (whole entry): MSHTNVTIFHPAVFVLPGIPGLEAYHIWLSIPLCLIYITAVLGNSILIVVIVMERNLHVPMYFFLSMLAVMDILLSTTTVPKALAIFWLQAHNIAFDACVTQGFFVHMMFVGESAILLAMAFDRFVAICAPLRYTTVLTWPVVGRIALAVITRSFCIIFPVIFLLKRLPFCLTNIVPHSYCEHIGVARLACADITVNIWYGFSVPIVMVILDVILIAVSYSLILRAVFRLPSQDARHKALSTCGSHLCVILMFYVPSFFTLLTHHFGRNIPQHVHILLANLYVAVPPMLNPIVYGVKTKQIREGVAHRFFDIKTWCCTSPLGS
Procedure, shortened: as §1

Measured: odorant receptor agonist call

CC(C)CCC(=O)O
active: OR51L1 (Homo sapiens)
inactive: OR51I1 (Homo sapiens) | OR51I2 (Homo sapiens) | OR51S1 (Homo sapiens) | OR52A4P (Homo sapiens) | OR52A5 (Homo sapiens) | OR52B4 (Homo sapiens) | OR52D1 (Homo sapiens)

CCC=CCCO
inactive: OR51I1 (Homo sapiens) | OR51I2 (Homo sapiens) | OR51L1 (Homo sapiens) | OR51S1 (Homo sapiens) | OR52A4P (Homo sapiens) | OR52A5 (Homo sapiens) | OR52B4 (Homo sapiens) | OR52D1 (Homo sapiens)

CCCCCC(C)=O
inactive: OR51I2 (Homo sapiens) | OR51L1 (Homo sapiens) | OR52B4 (Homo sapiens) | OR52D1 (Homo sapiens)

CCCCCCCCC=O
active: OR52A1 (Homo sapiens)
inactive: OR51L1 (Homo sapiens) | OR52B2 (Homo sapiens) | OR52D1 (Homo sapiens)

CCCCCCC=O
inactive: OR51L1 (Homo sapiens) | OR52D1 (Homo sapiens)

CC1=NC(C)SC1C (centres undefined)
inactive: OR51I2 (Homo sapiens) | OR51L1 (Homo sapiens) | OR52B4 (Homo sapiens) | OR52D1 (Homo sapiens)

CCCCCCCOC(C)=O
inactive: OR51I1 (Homo sapiens) | OR51I2 (Homo sapiens) | OR51L1 (Homo sapiens) | OR51S1 (Homo sapiens) | OR52A4P (Homo sapiens) | OR52A5 (Homo sapiens) | OR52B4 (Homo sapiens) | OR52D1 (Homo sapiens)

C=CCSCC=C
inactive: OR51I1 (Homo sapiens) | OR51I2 (Homo sapiens) | OR51L1 (Homo sapiens) | OR51S1 (Homo sapiens) | OR52A4P (Homo sapiens) | OR52A5 (Homo sapiens) | OR52B4 (Homo sapiens) | OR52D1 (Homo sapiens)

COc1cc(C=O)ccc1O
inactive: OR51I1 (Homo sapiens) | OR51I2 (Homo sapiens) | OR51L1 (Homo sapiens) | OR51S1 (Homo sapiens) | OR52A4P (Homo sapiens) | OR52A5 (Homo sapiens) | OR52B4 (Homo sapiens) | OR52D1 (Homo sapiens)
